Experimental data reported in patent US20260091050A1, “ADVANTAGEOUS ANTI-HCV COMBINATION THERAPY” (Atea Pharmaceuticals, Inc., priority 2021, published 2026).

Experiments:
[1] = Accelerated stability (40 ± 2° C./75 ± 5% RH) of Compound 1-A over 6 months; type: physicochemical; conditions: 0 month
Protocol: (§1) Three conditions were tested: accelerated stability (40±2° C./[…]) over a 6-month time period, ambient stability (25±2° C./[…]) over a 9-month period, and stability under refrigerator conditions (5±3° C.) over a 9-month time period. The results for accelerated stability, ambient stability, and refrigerator conditions are shown in Table 23, Table 24, and Table 25, respectively.

[2] = Ambient stability (25 ± 2° C./60 ± 5% RH) of Compound 1-A over 9 months; type: physicochemical; conditions: 0 month
Protocol: as §1

CNc1nc(N)nc2c1ncn2[C@@H]1O[C@H](CO[P@@](=O)(N[C@@H](C)C(=O)OC(C)C)Oc2ccccc2)[C@@H](O)[C@@]1(C)F [Compound 1-A, isopropyl ((S)-(((2R,3R,4R,5R)-5-(2-amino-6-(methylamino)-9H-purin-9-yl)-4-fluoro-3-hydroxy-4-methyltetrahydrofuran-2-yl)methoxy) (phenoxy)phosphoryl)-L-alaninate hemisulfate]
<1 cfu/g: Microbial Testing Mold and Yeast [1] | Microbial Testing TAMC [1] | Microbial Testing Mold and Yeast [2] | Microbial Testing TAMC [2]
